Consider 21 targets from the supplement of paper PMC10849652.

Sequences of proteins named here, by UniProt entry; tags and fusion partners are left off. A change or cut given only in a name is not applied to a line headed by its entry.
UniProt Q8NHU6: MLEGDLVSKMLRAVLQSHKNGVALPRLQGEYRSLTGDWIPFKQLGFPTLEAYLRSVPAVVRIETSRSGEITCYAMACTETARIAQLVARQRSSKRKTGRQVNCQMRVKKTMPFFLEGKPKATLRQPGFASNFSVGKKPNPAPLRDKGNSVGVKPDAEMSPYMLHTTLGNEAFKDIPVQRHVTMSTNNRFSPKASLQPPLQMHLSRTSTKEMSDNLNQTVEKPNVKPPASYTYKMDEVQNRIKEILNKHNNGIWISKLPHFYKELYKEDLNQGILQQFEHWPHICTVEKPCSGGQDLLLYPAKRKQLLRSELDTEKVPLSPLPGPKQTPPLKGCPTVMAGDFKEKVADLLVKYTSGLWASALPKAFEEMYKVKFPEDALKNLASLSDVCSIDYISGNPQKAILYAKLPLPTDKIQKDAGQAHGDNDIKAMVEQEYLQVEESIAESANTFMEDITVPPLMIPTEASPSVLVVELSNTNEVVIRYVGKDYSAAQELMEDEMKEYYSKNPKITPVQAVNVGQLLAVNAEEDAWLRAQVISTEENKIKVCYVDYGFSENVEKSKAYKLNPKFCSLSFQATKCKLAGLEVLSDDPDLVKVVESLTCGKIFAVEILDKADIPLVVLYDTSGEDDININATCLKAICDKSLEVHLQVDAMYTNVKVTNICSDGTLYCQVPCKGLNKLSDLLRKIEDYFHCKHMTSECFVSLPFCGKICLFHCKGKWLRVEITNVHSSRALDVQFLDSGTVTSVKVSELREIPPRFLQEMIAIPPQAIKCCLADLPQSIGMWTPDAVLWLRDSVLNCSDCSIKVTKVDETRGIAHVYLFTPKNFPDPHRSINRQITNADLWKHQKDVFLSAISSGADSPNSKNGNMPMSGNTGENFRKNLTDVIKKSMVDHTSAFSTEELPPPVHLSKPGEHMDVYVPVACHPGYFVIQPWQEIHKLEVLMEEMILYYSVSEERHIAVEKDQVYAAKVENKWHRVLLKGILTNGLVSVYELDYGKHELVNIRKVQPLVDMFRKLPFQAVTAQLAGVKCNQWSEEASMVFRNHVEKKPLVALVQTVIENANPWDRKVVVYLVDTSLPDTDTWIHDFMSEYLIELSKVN
UniProt Q9Y4R8, whole entry, looked up: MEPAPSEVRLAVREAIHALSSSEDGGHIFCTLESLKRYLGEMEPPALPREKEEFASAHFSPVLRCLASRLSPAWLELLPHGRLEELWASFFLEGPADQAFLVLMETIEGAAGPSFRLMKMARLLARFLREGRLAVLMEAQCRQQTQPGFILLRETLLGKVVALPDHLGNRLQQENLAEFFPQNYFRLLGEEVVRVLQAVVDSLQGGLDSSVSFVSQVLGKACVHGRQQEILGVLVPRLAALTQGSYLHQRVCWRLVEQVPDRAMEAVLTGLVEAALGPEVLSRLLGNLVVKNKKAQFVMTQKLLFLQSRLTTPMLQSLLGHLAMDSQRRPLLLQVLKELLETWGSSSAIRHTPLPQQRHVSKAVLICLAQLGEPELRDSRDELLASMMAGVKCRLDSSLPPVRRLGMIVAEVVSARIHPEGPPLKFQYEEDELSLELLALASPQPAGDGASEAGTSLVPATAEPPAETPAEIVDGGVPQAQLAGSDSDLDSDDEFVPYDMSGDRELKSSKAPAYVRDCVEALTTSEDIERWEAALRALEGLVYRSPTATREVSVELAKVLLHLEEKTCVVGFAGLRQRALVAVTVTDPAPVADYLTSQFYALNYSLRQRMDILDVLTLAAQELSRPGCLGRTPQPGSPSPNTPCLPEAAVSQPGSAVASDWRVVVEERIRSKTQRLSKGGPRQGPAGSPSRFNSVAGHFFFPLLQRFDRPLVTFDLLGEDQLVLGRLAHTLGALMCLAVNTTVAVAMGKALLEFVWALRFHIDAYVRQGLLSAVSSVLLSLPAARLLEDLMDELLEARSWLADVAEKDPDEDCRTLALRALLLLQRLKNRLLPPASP
UniProt Q9UHQ7: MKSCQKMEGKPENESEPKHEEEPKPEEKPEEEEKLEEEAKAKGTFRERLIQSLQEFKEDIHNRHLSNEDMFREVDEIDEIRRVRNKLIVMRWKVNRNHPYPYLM
UniProt Q9Y6J9: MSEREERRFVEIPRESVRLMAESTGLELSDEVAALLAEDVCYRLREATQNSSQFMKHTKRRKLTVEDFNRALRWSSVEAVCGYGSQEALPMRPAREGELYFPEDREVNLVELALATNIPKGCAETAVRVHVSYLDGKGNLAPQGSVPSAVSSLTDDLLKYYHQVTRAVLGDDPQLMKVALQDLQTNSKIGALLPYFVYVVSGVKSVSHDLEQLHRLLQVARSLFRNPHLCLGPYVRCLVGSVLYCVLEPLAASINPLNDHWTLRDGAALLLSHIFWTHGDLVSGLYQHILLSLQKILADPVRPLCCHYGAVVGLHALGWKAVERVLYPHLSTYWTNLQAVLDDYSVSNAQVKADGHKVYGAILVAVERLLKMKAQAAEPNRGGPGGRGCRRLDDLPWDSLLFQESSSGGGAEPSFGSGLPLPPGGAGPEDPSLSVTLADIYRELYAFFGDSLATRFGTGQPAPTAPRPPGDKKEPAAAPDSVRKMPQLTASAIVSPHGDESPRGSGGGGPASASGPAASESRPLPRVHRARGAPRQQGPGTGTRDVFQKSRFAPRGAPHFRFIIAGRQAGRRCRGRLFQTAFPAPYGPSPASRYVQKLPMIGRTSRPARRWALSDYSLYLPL
UniProt Q9Y4C2: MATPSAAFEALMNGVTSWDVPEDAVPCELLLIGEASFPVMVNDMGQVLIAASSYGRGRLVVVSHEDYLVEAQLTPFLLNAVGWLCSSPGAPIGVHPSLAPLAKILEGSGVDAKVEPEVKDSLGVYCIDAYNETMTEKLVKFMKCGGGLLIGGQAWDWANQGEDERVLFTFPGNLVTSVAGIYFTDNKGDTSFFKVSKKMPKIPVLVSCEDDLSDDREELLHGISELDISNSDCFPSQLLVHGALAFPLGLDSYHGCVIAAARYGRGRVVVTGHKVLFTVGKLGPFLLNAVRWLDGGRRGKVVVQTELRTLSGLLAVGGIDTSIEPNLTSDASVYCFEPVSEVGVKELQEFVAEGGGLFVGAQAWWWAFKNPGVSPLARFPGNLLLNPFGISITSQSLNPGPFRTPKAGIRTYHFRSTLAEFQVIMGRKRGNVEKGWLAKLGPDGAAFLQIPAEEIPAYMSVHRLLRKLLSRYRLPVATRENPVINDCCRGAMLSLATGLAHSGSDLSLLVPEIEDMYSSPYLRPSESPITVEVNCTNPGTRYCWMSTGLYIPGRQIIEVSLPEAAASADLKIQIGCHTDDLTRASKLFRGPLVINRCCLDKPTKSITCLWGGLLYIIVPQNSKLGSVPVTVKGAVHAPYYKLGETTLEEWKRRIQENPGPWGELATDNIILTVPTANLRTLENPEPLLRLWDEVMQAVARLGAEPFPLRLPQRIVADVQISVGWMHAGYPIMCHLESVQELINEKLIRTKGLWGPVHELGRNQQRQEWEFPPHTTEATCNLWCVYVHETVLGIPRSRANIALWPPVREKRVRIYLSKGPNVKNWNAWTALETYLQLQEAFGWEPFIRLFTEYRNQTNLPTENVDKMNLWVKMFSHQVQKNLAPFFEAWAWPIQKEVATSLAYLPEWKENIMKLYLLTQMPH
UniProt Q14186: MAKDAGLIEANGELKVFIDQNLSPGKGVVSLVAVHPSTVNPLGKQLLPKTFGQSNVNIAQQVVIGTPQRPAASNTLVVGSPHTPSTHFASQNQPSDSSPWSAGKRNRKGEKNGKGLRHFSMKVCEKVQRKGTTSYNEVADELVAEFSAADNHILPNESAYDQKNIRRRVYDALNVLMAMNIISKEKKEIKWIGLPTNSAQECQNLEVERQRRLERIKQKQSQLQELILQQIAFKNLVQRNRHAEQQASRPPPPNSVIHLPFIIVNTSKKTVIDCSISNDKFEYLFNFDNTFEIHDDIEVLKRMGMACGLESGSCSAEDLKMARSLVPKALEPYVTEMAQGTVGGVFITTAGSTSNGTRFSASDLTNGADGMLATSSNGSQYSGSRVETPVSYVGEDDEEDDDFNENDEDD
UniProt Q9UI15: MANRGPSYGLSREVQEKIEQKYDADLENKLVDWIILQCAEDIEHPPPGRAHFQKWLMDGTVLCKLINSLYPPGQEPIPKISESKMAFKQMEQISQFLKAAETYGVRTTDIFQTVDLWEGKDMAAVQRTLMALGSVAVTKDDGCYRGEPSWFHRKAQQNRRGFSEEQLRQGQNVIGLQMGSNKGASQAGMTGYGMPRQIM
UniProt P19484: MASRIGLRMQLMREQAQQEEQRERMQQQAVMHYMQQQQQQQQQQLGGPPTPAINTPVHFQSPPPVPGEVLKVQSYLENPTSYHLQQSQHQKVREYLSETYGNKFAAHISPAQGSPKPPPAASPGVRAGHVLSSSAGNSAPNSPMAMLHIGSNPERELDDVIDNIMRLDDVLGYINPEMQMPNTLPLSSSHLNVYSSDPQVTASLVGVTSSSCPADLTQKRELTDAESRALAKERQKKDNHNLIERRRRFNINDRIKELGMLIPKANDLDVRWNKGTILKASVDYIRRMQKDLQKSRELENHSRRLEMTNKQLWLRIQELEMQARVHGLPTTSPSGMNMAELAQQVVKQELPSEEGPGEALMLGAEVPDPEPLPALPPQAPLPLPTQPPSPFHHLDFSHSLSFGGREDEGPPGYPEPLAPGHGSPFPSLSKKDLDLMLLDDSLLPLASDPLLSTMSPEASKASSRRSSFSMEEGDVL
UniProt O14776: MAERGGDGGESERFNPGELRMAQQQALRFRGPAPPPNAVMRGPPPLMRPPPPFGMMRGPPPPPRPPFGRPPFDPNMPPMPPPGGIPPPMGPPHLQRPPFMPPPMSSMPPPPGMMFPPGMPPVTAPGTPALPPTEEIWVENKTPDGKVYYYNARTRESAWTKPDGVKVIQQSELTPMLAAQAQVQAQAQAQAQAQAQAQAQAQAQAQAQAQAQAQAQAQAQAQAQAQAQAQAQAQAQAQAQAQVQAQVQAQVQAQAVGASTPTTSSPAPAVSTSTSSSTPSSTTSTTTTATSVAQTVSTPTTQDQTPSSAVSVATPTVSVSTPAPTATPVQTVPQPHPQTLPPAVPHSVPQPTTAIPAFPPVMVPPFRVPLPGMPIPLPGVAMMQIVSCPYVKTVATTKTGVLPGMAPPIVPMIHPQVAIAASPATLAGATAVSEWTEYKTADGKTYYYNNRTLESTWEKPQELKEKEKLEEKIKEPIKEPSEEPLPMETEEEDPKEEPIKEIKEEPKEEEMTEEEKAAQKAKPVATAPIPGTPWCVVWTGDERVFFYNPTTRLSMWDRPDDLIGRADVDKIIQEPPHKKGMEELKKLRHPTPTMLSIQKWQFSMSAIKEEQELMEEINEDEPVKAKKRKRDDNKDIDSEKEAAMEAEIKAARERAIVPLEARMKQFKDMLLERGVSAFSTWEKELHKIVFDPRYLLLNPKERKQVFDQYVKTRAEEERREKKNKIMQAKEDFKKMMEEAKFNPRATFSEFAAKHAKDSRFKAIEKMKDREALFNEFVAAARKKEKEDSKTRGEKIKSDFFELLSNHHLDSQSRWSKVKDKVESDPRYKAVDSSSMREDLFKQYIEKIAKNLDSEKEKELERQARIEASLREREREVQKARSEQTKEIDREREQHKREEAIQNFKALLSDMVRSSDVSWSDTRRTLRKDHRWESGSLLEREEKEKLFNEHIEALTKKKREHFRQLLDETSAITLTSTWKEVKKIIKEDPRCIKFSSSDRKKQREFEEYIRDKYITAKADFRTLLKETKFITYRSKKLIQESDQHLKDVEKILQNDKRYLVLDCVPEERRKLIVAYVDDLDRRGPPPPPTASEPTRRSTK
UniProt Q9NUY8: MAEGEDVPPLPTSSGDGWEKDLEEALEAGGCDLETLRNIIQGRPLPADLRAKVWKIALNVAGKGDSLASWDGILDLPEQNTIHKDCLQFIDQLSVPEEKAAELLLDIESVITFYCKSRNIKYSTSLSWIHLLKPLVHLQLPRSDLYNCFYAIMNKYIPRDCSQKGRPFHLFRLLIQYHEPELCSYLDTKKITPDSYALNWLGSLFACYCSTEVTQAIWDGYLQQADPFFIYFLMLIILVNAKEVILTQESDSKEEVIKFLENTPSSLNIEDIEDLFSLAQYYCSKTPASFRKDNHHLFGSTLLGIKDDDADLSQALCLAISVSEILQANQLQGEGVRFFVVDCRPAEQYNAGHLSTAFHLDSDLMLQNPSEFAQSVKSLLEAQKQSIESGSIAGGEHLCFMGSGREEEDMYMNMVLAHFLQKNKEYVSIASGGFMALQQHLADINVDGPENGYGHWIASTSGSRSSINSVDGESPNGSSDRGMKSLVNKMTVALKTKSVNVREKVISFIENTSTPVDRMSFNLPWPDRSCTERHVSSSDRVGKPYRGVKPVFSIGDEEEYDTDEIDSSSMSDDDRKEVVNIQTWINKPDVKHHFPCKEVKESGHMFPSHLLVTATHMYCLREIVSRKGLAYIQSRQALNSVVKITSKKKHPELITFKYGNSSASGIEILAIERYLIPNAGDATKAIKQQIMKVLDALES

The list shows a part of the results.

Common to all, as to assay: log2 fold change, soluble protein after heating vs DMSO (PISA); higher = thermal stabilisation; K562 lysate, 10 uM; active = over 0.2 and 3.5 SD of the protein, either way, in both replicates (recomputed)
Compound in assay [1]: NCC(=O)Nc1ccc(-n2nc(C(F)(F)F)cc2-c2ccc3c(ccc4ccccc43)c2)cc1
The gist of the method:
(§1)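 K562 pellets were dounce-homogenised in PBS pH 7.4 containing 1 mM MgCl2, and the crude extract, at 1 mg/mL protein, was exposed to 10 μM compound for 30 min. Aliquots were heated for 3 min across 48°C-58°C, pooled, brought to 0.5% NP-40 at 4°C and spun at 21,000xg for 90 min, with the supernatant taken as soluble protein. TMTpro 16plex LC-MS/MS with equalised channel sums quantified that protein. Values are log-two fold changes in thermal stability relative to solvent controls, taken from duplicates.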

Compound in a further assay: O=C(CCCCCCC(=O)Nc1ccccc1)NO [vorinostat]
The gist of the method: as §1

Compound in another assay: O=C(O)c1ccc2c(c1)nc(Nc1cccc(Cl)c1)c1ccncc12 [silmitasertib]
The procedure, abridged: as §1

Compound in assay [2]: O=C1NC(=O)C(c2cnc3ccccn23)=C1c1cn2c3c(cc(F)cc13)CN(C(=O)N1CCCCC1)CC2
The procedure, abridged: as §1

Compound in the next assay: c1cn2cc(-c3ccc4cn[nH]c4c3)nc(Nc3ccc(N4CCOCC4)cc3)c2n1 [entospletinib]
The procedure, abridged:
as §1

Regarding TATDN2 (UniProt Q93075), the log2 fold change was inactive: 0.063 in assay [1]; inactive: -0.061 with vorinostat; inactive: -0.157 with silmitasertib; inactive: 0.006 in assay [2]; inactive: -0.056 with entospletinib.

For the target TDRD7 (UniProt Q8NHU6), the log2 fold change was inactive: -0.046 in assay [1]; inactive: -0.147 in the assay with vorinostat; inactive: 0.033 with silmitasertib; inactive: -0.021 in assay [2]; inactive: -0.021 with entospletinib.

For the target TBC1D2 (UniProt Q9BYX2), the log2 fold change was inactive: -0.081 in assay [1]; inactive: 0.002 in the assay with vorinostat; inactive: 0 with silmitasertib; inactive: 0.071 in assay [2]; inactive: 0.025 with entospletinib.

As to TELO2 (UniProt Q9Y4R8), the log2 fold change is inactive: 0.003 in assay [1]; active: -0.361 with vorinostat; inactive: 0.117 with silmitasertib; inactive: 0.011 in assay [2]; inactive: 0.011 with entospletinib.

As for TCEAL9 (UniProt Q9UHQ7), the log2 fold change in assay [1] was inactive: -0.095; in assay [2], inactive: 0.003.

TBC1D2B (UniProt Q9UPU7): the log2 fold change is inactive: -0.007 in assay [1]; active: -0.249 in the assay with vorinostat; inactive: 0.049 in the assay with silmitasertib; inactive: -0.047 in assay [2]; inactive: -0.061 in the assay with entospletinib.

For the target TBK1 (UniProt Q9UHD2), the log2 fold change in assay [1] is inactive: -0.04; with vorinostat it was inactive: -0.361; with silmitasertib, inactive: 0.189; in assay [2], inactive: 0.125; with entospletinib, inactive: 0.204.

Regarding TAF6L (UniProt Q9Y6J9), the log2 fold change is inactive: -0.022 in assay [1]; inactive: -0.086 with vorinostat; inactive: 0.013 with silmitasertib; inactive: -0.033 in assay [2]; inactive: -0.08 in the assay with entospletinib.

For the target TCAF1 (UniProt Q9Y4C2), the log2 fold change in assay [1] is inactive: -0.006; with vorinostat, inactive: -0.215; with silmitasertib, inactive: 0.017; in assay [2] it was inactive: 0; with entospletinib, inactive: 0.036.

For TEPSIN, A0A1B0GV70, the log2 fold change in assay [1] was inactive: -0.223; in the assay with vorinostat it was inactive: -0.235; in the assay with silmitasertib, inactive: 0.147; in assay [2] it was inactive: 0.035; with entospletinib it was inactive: -0.03.

With TBC1D14 (UniProt Q9P2M4), the log2 fold change in assay [1] was inactive: -0.02; with vorinostat, inactive: -0.169; with silmitasertib it was inactive: 0.025; in assay [2], inactive: -0.076; with entospletinib, inactive: -0.022.

TBL2 (UniProt Q9Y4P3): the log2 fold change was inactive: -0.035 in assay [1]; active: -0.292 with vorinostat; inactive: -0.007 in the assay with silmitasertib; inactive: -0.035 in assay [2]; inactive: 0.02 in the assay with entospletinib.

For the target TFDP1 (UniProt Q14186), the log2 fold change was inactive: -0.005 in assay [1]; inactive: -0.02 in the assay with vorinostat; inactive: -0.039 with silmitasertib; inactive: 0.033 in assay [2]; inactive: -0.027 with entospletinib.

Consider TAMM41 isoform 3 (UniProt Q96BW9), for which the log2 fold change is inactive: 0.043 in assay [1]; inactive: 0.162 with vorinostat; inactive: 0.018 with silmitasertib; inactive: 0.008 in assay [2]; inactive: 0.009 in the assay with entospletinib.

With TAGLN3 (UniProt Q9UI15), the log2 fold change in assay [1] is inactive: 0.015; in the assay with vorinostat, inactive: -0.093; with silmitasertib, inactive: -0.056; in the assay with entospletinib, inactive: -0.014.

For the target TCP11L2 (UniProt Q8N4U5), the log2 fold change is inactive: 0.014 in assay [1], inactive: -0.16 with vorinostat, inactive: 0.05 with silmitasertib and inactive: -0.104 with entospletinib.

TFEB (UniProt P19484): the log2 fold change in assay [1] is inactive: 0.201; in assay [2], inactive: 0.036.

Turning to TCERG1 (UniProt O14776), the log2 fold change was inactive: -0.005 in assay [1]; inactive: -0.174 with vorinostat; inactive: 0.016 with silmitasertib; inactive: -0.017 in assay [2]; inactive: 0.008 with entospletinib.

In the case of TBC1D10B (UniProt Q4KMP7), the log2 fold change in assay [1] is inactive: -0.03; with vorinostat, inactive: -0.018; with silmitasertib, inactive: -0.028; in assay [2], inactive: 0.005; in the assay with entospletinib, inactive: 0.045.

As to TBC1D23 (UniProt Q9NUY8), the log2 fold change in assay [1] is inactive: 0.031; with vorinostat, active: -0.252; with silmitasertib, inactive: -0.023; in assay [2], inactive: -0.001; with entospletinib, inactive: 0.

With TBRG4 (UniProt Q969Z0), the log2 fold change was inactive: 0.017 in assay [1]; inactive: -0.238 with vorinostat; inactive: 0.034 with silmitasertib; inactive: 0.008 in assay [2]; inactive: 0.042 with entospletinib.
